US20240189391A1
Results are given in words; binding and its absence hold for the method and conditions named. Some binding calls cover weakened binding; strength is not graded here. For some of these results: Sequences can lack the tags named with a protein.

Amino acid sequences for entries named in this document (tags omitted). A change or cut given only in a name is not applied to a line headed by its entry. Residues count along the entry.
UniProt P22004, residues 382-513: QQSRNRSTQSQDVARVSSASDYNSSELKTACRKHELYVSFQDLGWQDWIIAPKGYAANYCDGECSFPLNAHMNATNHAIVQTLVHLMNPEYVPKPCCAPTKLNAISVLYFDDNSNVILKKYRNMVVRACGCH
UniProt P36896: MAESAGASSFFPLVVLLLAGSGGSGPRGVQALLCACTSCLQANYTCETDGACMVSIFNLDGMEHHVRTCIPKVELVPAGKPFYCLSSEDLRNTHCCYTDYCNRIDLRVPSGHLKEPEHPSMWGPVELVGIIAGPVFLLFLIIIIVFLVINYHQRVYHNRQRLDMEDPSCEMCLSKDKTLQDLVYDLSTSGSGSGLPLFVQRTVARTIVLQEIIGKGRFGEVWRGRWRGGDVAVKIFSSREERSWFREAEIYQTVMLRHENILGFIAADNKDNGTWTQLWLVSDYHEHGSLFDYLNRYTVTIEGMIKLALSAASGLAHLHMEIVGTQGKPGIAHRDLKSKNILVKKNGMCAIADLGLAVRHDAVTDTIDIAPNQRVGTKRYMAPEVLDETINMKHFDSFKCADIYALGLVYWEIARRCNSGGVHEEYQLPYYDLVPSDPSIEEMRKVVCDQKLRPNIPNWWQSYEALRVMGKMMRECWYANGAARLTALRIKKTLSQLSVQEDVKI

Columns and labels:
[1] = target: T1, GDF3 (UniProt Q9NR23); assay: SPR (Biacore), legend of FIG. 4
T1 sequence (looked up): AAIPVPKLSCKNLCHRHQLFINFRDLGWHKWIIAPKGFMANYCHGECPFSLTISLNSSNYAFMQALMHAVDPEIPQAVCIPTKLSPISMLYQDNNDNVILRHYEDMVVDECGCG

[2] = target: BMP6 (UniProt P22004); assay: SPR (Biacore), legend of FIG. 4
[3] = target: T1, GDF3; assay: SPR (Biacore), summary of the table
[4] = target: BMP6 (UniProt P22004); assay: SPR (Biacore), summary of the table
[5] = target: T2, GDF8 (UniProt O14793); assay: SPR (Biacore), legend of FIG. 4
T2 sequence (looked up): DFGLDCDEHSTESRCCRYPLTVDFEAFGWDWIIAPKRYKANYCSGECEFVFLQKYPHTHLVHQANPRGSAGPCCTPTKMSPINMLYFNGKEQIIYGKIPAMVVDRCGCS

[6] = target: T3, GDF11 (UniProt O95390); assay: SPR (Biacore), legend of FIG. 4
T3 sequence (looked up): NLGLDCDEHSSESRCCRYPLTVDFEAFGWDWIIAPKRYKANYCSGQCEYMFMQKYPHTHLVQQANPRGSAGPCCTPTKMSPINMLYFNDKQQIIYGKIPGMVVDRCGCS

[7] = target: T2, GDF8; assay: SPR (Biacore), binding data recalled in the reporter assay text
[8] = target: T3, GDF11; assay: as above
[9] = target: T4, Activin B (UniProt P09529); assay: as above
T4 sequence (looked up): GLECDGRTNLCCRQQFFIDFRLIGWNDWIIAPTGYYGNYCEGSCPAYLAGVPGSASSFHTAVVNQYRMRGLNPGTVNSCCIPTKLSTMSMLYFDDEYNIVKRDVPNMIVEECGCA

[10] = target: T2, GDF8; assay: SPR (Biacore), summary of the table
[11] = target: T3, GDF11; assay: SPR (Biacore), summary of the table

Measured: binding

ALK4-Fc:ActRIIB-Fc heterodimer (from UniProt P36896 24-126; Q13705 20-134) (Fc fusion)
binds: [1] | [2] | [3] | [4]

B1: ActRIIB-Fc homodimer (Fc fusion, not shown: a dimerising Fc or GST)
chain: GRGEAETRECIYYNANWELERTNQSGLERCEGEQDKRLHCYASWRNSSGTIELVKKGCWLDDFNCYDRQECVATEENPQVYFCCCEGNFCNERFTHLPEAGGPEVTYEPPPTAPT
binds: [2] | [5] | [6] | [7] | [8] | [9] | [4] | [10] | [11]
